tested on: HLA molecules of primary tumors and normal tissue samples; assay: Identification and relative quantitation of HLA ligands by LC-MS (peptide presentation on tumor versus normal tissue); design: species or system human; conditions: cancer entities on which the peptide was found presented (HLA ligands, LC-MS); abbreviations as in title of Table 8

Substance | Peptide Presentation on cancer entities
2 (VDPIGHLY; listed as Homo sapiens) [compound 2] | HCC
4 (RIEAIRAEY; listed as Homo sapiens) [compound 4] | MEL
6 (ARDPITFSF; listed as Homo sapiens) [compound 6] | HNSCC, NSCLCadeno
7 (ASDDVRIEVGLY; listed as Homo sapiens) [compound 7] | AML, NSCLCother
8 (TSRAANIPGY; listed as Homo sapiens) [compound 8] | MEL
10 (VSERTGISY; listed as Homo sapiens) [compound 10] | MEL
11 (ASDHWRGRY; listed as Homo sapiens) [compound 11] | PRCA
12 (YTDFVGEGLY; listed as Homo sapiens) [compound 12] | BRCA, PRCA
13 (NTHTGTRPY; listed as Homo sapiens) [compound 13] | NSCLCsquam
14 (QSEKEPGQQY; listed as Homo sapiens) [compound 14] | HCC
15 (YLDSSKPAVY; listed as Homo sapiens) [compound 15] | BRCA, UEC
16 (NSDISIPEY; listed as Homo sapiens) [compound 16] | BRCA, GC, NHL, OC, SCLC, UEC
17 (ASWAVLCYY; listed as Homo sapiens) [compound 17] | NSCLCsquam
18 (RSDPVSLRY; listed as Homo sapiens) [compound 18] | GBM
19 (LTEGHSGNY; listed as Homo sapiens) [compound 19] | NHL
20 (LSAQHRMLA; listed as Homo sapiens) [compound 20] | GBM
23 (DTDPLKAAGL; listed as Homo sapiens) [compound 23] | GBC, GBM, GC, MEL, NSCLCadeno, NSCLCsquam, OC, OSCAR, UEC
24 (NLDHYTNAY; listed as Homo sapiens) [compound 24] | UEC
25 (AMMQEAQLAY; listed as Homo sapiens) [compound 25] | NSCLCadeno, NSCLCother, SCLC, UEC
26 (ASDDFRSKY; listed as Homo sapiens) [compound 26] | OSCAR
29 (TLEDLDNLYNY; listed as Homo sapiens) [compound 29] | NSCLCadeno
30 (VTTDKPRAY; listed as Homo sapiens) [compound 30] | HNSCC
31 (VSDHLQAGMLGQY; listed as Homo sapiens) [compound 31] | HNSCC, OSCAR
32 (GTDKQNSTLRY; listed as Homo sapiens) [compound 32] | MEL, NSCLCadeno
33 (SMDPVTGYQY; listed as Homo sapiens) [compound 33] | MEL
34 (SSWSAGENDSY; listed as Homo sapiens) [compound 34] | BRCA, CCC, GBC, GBM, GC, HNSCC, MEL, NSCLCsquam, OC, OSCAR, PACA, UEC
35 (SWSAGENDSYS; listed as Homo sapiens) [compound 35] | BRCA, NSCLCadeno, NSCLCsquam, UEC
36 (MTSTEQSLY; listed as Homo sapiens) [compound 36] | HCC, MEL

Substance | Peptide Presentation on cancer entities
37 (MTSTEQSLYY; listed as Homo sapiens) [compound 37] | MEL
40 (TSDQLGYSY; listed as Homo sapiens) [compound 40] | MEL
43 (ETEPERHLGSY; listed as Homo sapiens) [compound 43] | PRCA
45 (NLDPNKIY; listed as Homo sapiens) [compound 45] | MEL, OSCAR
46 (RSDPGGGGLAYAAY; listed as Homo sapiens) [compound 46] | AML, BRCA
47 (WSDGVPLLY; listed as Homo sapiens) [compound 47] | GBM, MEL
50 (ITDEDEDMLSY; listed as Homo sapiens) [compound 50] | HCC
54 (EVDIHTIHY; listed as Homo sapiens) [compound 54] | GBC, HNSCC, OSCAR
55 (ATEGDVLNY; listed as Homo sapiens) [compound 55] | MEL, NHL, NSCLCsquam
56 (VTEYAEEIYQY; listed as Homo sapiens) [compound 56] | AML
58 (YLENSASWY; listed as Homo sapiens) [compound 58] | UEC
59 (FTDSQGNDIK; listed as Homo sapiens) [compound 59] | MEL
60 (MTEKFLFLY; listed as Homo sapiens) [compound 60] | HNSCC, OSCAR
61 (SSDIVALGGFLY; listed as Homo sapiens) [compound 61] | AML, BRCA, NSCLCsquam
62 (VSELVTTGHY; listed as Homo sapiens) [compound 62] | AML, CRC, GBC, GBM, NSCLCadeno, NSCLCsquam, OC, OSCAR
65 (SSDFDPLVY; listed as Homo sapiens) [compound 65] | BRCA, GBC, GBM, GC, HCC, MEL, NSCLCadeno, NSCLCsquam, UEC
67 (NVDQNQNSY; listed as Homo sapiens) [compound 67] | GBM, HNSCC, MEL, NSCLCadeno
70 (YTELVEEKY; listed as Homo sapiens) [compound 70] | BRCA, CCC, CRC, GC, HCC, HNSCC, MEL, NHL, NSCLCadeno, NSCLCother, NSCLCsquam, OC, OSCAR, PACA, PRCA, RCC, UEC
71 (LTDSTTRTTY; listed as Homo sapiens) [compound 71] | CRC, GC, NSCLCadeno, NSCLCsquam, PACA
72 (VTDSTTKIAY; listed as Homo sapiens) [compound 72] | GC, NSCLCsquam, PACA, SCLC
74 (EMEQQSQEY; listed as Homo sapiens) [compound 74] | HNSCC, OSCAR
76 (QTDVERIKDTY; listed as Homo sapiens) [compound 76] | CCC, CRC, GBC, GC, HCC, HNSCC, NHL, NSCLCadeno, NSCLCother, NSCLCsquam, OC, OSCAR, PACA, PRCA, UEC
77 (FTSDTGLEY; listed as Homo sapiens) [compound 77] | AML, NSCLCadeno
78 (QLDSAVKNLY; listed as Homo sapiens) [compound 78] | BRCA, CRC, GBC, GC, HCC, HNSCC, MEL, NHL, NSCLCadeno, NSCLCsquam, OSCAR, PACA; SCLC, UBC, UEC
79 (ASDLEPRELLSY; listed as Homo sapiens) [compound 79] | BRCA
80 (ELCPLPGTSAY; listed as Homo sapiens) [compound 80] | GBC, GBM, GC, HCC, HNSCC
81 (YSDLHTPGRY; listed as Homo sapiens) [compound 81] | AML, SCLC

— US12195506B2, “Immunotherapy with A*01 restricted peptides and combination of peptides against cancers and related methods” (Immatics Biotechnologies GmbH, priority 2018, dated 2025)
